Measured values from PubChem BioAssay AID504467 (National Center for Advancing Translational Sciences (NCATS), 2011).
The whole screen tested about 330,000 compounds, of which about 7,700 (2.3%) were called active. The inconclusive results got no clear call from the source; some entries with a clear call stand among them for comparison. Calls come from the whole dose curve; as a rule, active = well fitted inhibition curve with a large enough effect; inconclusive = small, poorly fitted or top-dose-only effect, or effect the other way; inactive = flat fitted curve, though single readings scatter. A potency beside an inconclusive call is a rough fit, not a confirmed value.

test: qHTS screen for small molecules that inhibit ELG1-dependent DNA repair in human embryonic kidney (HEK293T) cells expressing luciferase-tagged ELG1; settings: HEK293T ELG1-luciferase reporter, luminescence, 16 h, DNA damage induced by 5-fluorouridine; series mostly up to 46.1 µM; note: nearly all actives have a fitted effect of over 55% in size
Procedure, shortened: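 Step one: seed 2,000 cells per well. Step two: pin-transfer compound or DMSO alongside 5-fluorouridine. Step three: incubate 16 hr, 37 °C, 5% CO2. Step four: add ONE-Glo, wait 30 min, read luminescence.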
Potency is the fitted concentration of half-maximal effect.

Compound	Potency
CCOC(=O)CSc1nc(-c2ccc3c(c2)OCO3)ccc1C#N	inconclusive: 2.91 µM [activator, partial curve]
CCOC(=O)Cc1nn(Cc2ccc(Cl)cc2)c(=O)c2ccccc12	inconclusive: 29.1 µM [inhibitor, single point]
COc1cc(NC(=O)C(=O)Nc2ccc3nc4n(c(=O)c3c2)CCCCC4)cc(OC)c1OC	inconclusive: 6.51 µM [inhibitor, single point]
Cc1cc(Br)ccc1NC(=O)C1C2CCC(O2)C1C(=O)O (stereo not drawn)	inactive
c1ccc(Cn2nnc3c(NCCN4CCOCC4)ncnc32)cc1	inactive
COCCOC(=O)c1c(C)oc2ccc(OCc3ccccc3)cc12	inconclusive: 2.91 µM [inhibitor, partial curve, poor fit]
C[n+]1nc(Nc2cccc3ccccc23)sc1-c1ccc(C(=O)O)cc1	inconclusive: 18.3 µM [activator, single point]
C=CCN(CC=C)C(=S)NC(=O)c1ccc(C)c(Br)c1	inactive
CC1CCN(CCCn2c(SCC(=O)NC3CCCC3)nc3ccccc3c2=O)CC1	inconclusive: 9.2 µM [activator, partial curve]
COc1ccc(NC(=O)Cc2ccc(C)cc2)cc1S(=O)(=O)N1CCCCC1	inconclusive: 35.5 µM [inhibitor, single point]
CCOC(=O)N1CCN(C(=O)c2ccc3c(c2)N(Cc2cccc(Cl)c2)C(=O)c2ccccc2S3=O)CC1 (stereo not drawn)	inconclusive: 32.6 µM [inhibitor, single point]
CN(C)S(=O)(=O)N1CCN(CC(O)COc2ccc3cc(Br)ccc3c2)CC1 (stereo not drawn)	active: 23.1 µM
COCc1[nH]nc2c1C(c1sccc1C)C(C#N)=C(N)O2 (stereo not drawn)	inconclusive: 11.6 µM [activator, single point]
O=C(Nc1ccc(C(=O)N2CCCC2)cc1)c1ccccc1Br	inconclusive: 20.6 µM [activator, single point]
Cc1nnc2n(Cc3ccccc3)c(=O)c3c4c(sc3n12)CCCC4	inactive
COc1cc2c(C#N)c(N3CCN(C)CC3)nc(N)c2c(N)n1	inactive
CCCOC(=O)c1sc2nc3c(cc2c1N)C(=O)CCC3	inconclusive: 4.61 µM [activator, partial curve]
Cc1nc2ccc(NC(=O)CS(=O)(=O)c3ccc(F)cc3)cc2s1	inconclusive: 16.4 µM [activator, single point]
COc1ccccc1CC(=O)NCc1csc(-c2cccs2)n1	inconclusive: 20.6 µM [activator, partial curve]
CC(=O)c1ccc(-c2ccccc2[C@H]2[C@H]3C=CC[C@@H](C)[C@@H]3C(=O)N2Cc2ccccc2)cc1	inconclusive: 20.6 µM [inhibitor, single point]
Cc1ccc(C(=O)Nc2ccccc2N2CCCCC2)cc1[N+](=O)[O-]	inconclusive: 11.6 µM [inhibitor, partial curve, poor fit]
Cc1ccc(Cl)c(OCC(=O)Nc2sc(C)c(C)c2C#N)c1	inconclusive: 10.3 µM [activator, partial curve]
N#Cc1ccc(NC(=O)Nc2ccc(Cl)cc2)cc1	inconclusive: 29.1 µM [inhibitor, single point]

Compound	Potency
CCC(C)NC(=O)CSc1nnc(-c2ccoc2C)n1CC1CCCO1 (stereo not drawn)	inactive
COc1ccccc1OCCSc1nc2ccccc2n1CCC(=O)O	inconclusive: 14.6 µM [activator, partial curve, poor fit]
Cc1ccc(OCC(=O)NCc2ccccn2)cc1	inconclusive: 23.1 µM [activator, partial curve, poor fit]
CCOC(=O)c1ccc(NC(=O)C23CCC(C)(C(=O)O2)C3(C)C)cc1 (stereo not drawn)	inconclusive: 6.51 µM [activator, partial curve]
COc1ccc(N=c2oc3cc(O)ccc3cc2C(=O)NCC2CCCO2)cc1 (stereo not drawn)	inconclusive: 2.59 µM [inhibitor, partial curve]
NNc1nc2c(F)cccc2s1	inconclusive: 13 µM [activator, partial curve]
Cc1cc(C)n2cc(CSc3ccc(Cl)cc3)nc2n1	inconclusive: 16.4 µM [activator, partial curve]
COc1ccc(-c2csc(NC(=O)c3ccoc3C)n2)cc1	inconclusive: 4.11 µM [activator, single point]
Cc1csc(N/N=C\c2cccnc2)n1	inconclusive: 18.3 µM [activator, partial curve]
CCCCNc1c2c3c(cccc3n(C)c1=O)C(=O)c1ccccc1-2	active: 16.4 µM
O=C(Cn1c(COc2ccc(Cl)cc2)nc2ccccc21)NCC(F)(F)F	inactive
CCOc1ccc(/C=N/n2cnnc2)cc1	inconclusive: 25.9 µM [activator, partial curve, poor fit]
CCOc1ccc(Nc2c3c(nc4ncnn24)CC(C)CC3)cc1 (stereo not drawn)	inactive
CSc1ccccc1NC(=O)c1cc(C(C)C)on1	inconclusive: 18.4 µM [activator, partial curve]
CSc1nsc(SCC(=O)Nc2cccc(C(=O)O)c2)n1	inactive
O=C(OCC(=O)c1c[nH]c2ccccc12)c1cncc(Br)c1	inconclusive: 4.61 µM [activator, single point]
CCn1c(=S)[nH]c2sc3c(c2c1=O)CCCCC3	inconclusive: 23.1 µM [inhibitor, single point]
Cc1nc(SCc2nc3ccccc3[nH]2)c2oc3ccccc3c2n1	active: 18.4 µM
O=C(N/N=C/c1cn(-c2ccccc2)nc1-c1cccnc1)c1ccc(F)cc1	inconclusive: 20.6 µM [inhibitor, single point]
O=C(NC(=S)NC(=O)c1ccccc1F)c1ccccc1F	inconclusive: 11.6 µM [activator, partial curve]
CC(C)Oc1ccccc1C1CC(=O)Nc2cc3c(cc21)OCCO3 (stereo not drawn)	inconclusive: 1.16 µM [inhibitor, single point]
O=C(CSc1nnc(-c2ccc(O)cc2)n1-c1ccccc1)CC(=O)Nc1ccccc1	inconclusive: 18.4 µM [inhibitor, partial curve, poor fit]
CCOC(=O)c1ccc(-c2c(-c3cc(OC)c(OC)c(OC)c3)noc2C)cc1F	inconclusive: 25.9 µM [inhibitor, single point]

Compounds above that contain an NH in an aromatic ring:
Compound	Potency
COCc1[nH]nc2c1C(c1sccc1C)C(C#N)=C(N)O2 (stereo not drawn)	inconclusive: 11.6 µM [activator, single point]
O=C(OCC(=O)c1c[nH]c2ccccc12)c1cncc(Br)c1	inconclusive: 4.61 µM [activator, single point]
CCn1c(=S)[nH]c2sc3c(c2c1=O)CCCCC3	inconclusive: 23.1 µM [inhibitor, single point]
Cc1nc(SCc2nc3ccccc3[nH]2)c2oc3ccccc3c2n1	active: 18.4 µM

Continuation.

Compound	Potency
COc1ccc(NC(C)C(=O)N/N=C/c2ccccc2OCc2ccc(Br)cc2)cc1 (stereo not drawn)	inconclusive: 4.11 µM [activator, full curve]
C/C(CCC1CC(C)OC1=O)=N/Nc1nc(-c2ccccc2)cs1 (stereo not drawn)	inconclusive: 20.6 µM [activator, single point]
O=C(Nc1ccccc1Oc1cccnc1)C1CCCN(C/C=C/c2ccc(F)cc2)C1 (stereo not drawn)	inconclusive: 29.1 µM [inhibitor, single point]
CCOC(=O)c1csc(NC(=O)c2ccc(S(=O)(=O)N(C)C)cc2)n1	active: 7.31 µM
COc1ccc(Oc2nnnn2-c2ccccc2)cc1	inconclusive: 20.6 µM [activator, single point]
Fc1ccccc1/C=N/n1cc(-c2ccccc2)[nH]c1=S	inconclusive: 20.6 µM [activator, partial curve, poor fit]
Cc1oc(-c2ccc(Cl)cc2)nc1CN1CCCC(C(=O)NCc2ccccn2)C1 (stereo not drawn)	inconclusive: 29.1 µM [inhibitor, single point]
Cc1cc(C)c(-n2nnnc2SCC(=O)c2cc3ccccc3o2)c(C)c1	inconclusive: 29.1 µM [inhibitor, single point]
Cc1ccc(-c2nnc(N(C)C(=O)c3ccncc3)s2)cn1	inconclusive: 13 µM [activator, partial curve]
O=[N+]([O-])c1ccc(-c2ccc(/C=N/n3cnnc3)o2)c(Br)c1	inactive
CSc1ccc(S(=O)(=O)N(CC(=O)NN=C2CCN(C)CC2)c2ccc(C)cc2)cc1	inactive
CCC1CCCCN1C(=O)CSc1nc2ccsc2c(=O)n1Cc1ccccc1 (stereo not drawn)	inconclusive: 29.1 µM [inhibitor, single point]
CCCCCCCNC(=O)C1(CC2CC(c3ccc(Cl)cc3)=NO2)CCN(C(=O)c2cc(OCC)c(OCC)c(OCC)c2)CC1 (stereo not drawn)	inconclusive: 25.9 µM [inhibitor, single point]
CC(=O)c1ccc(NC(=O)CSc2nccn2CCc2ccccc2)cc1	inconclusive: 16.4 µM [activator, partial curve]
O=S(=O)(Nc1cc2nc3ccccc3nc2n1Cc1ccccc1)c1ccc(Cl)cc1	inconclusive: 11.6 µM [inhibitor, partial curve]
O=S(=O)([N-]c1nc2ccccc2nc1-n1cc[n+](Cc2ccccc2)c1)c1ccccc1	inconclusive: 10.3 µM [activator, partial curve, poor fit]
O=c1c2c3c(sc2ncn1-n1cccc1)CCCCC3	inconclusive: 23.1 µM [activator, single point]
CC(C)OC(=O)c1cccnc1N1CCN(c2cccc(Cl)c2)CC1	inconclusive: 18.3 µM [inhibitor, single point]
COCCn1c(CN(C)Cc2ccccc2)nc2c1c(=O)n(C)c(=O)n2C	inconclusive: 18.4 µM [inhibitor, single point]
O=C(Cc1ccc(Cl)cc1)N/N=C1\CCCc2ccccc21	inactive
CNC(=O)N1c2ccccc2CCc2ccccc21	inactive
CN1CCN(C2=C(NS(=O)(=O)c3ccccc3)C(=O)c3ccccc3C2=O)CC1	inactive
